# Percent effect of library compounds

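Phenotypic screen: M. tuberculosis growth, cholesterol and DPPC medium, 4 days; the read-out is not stated. Compounds at 50 µM. Direction is inferred from retests: higher values go with more growth inhibition. Size under these conditions: about 69,000 compounds, about 370 of them at 50% or above in at least one test.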

Results are given as percent effect.
How 0% and 100% were set is not recorded. Most values in the screen are low, and negative values occur.
This is an unselected part of the compounds tested.
Two or more numbers in one place are separate tests of the same structure; such repeats can differ widely.

SMILES,effect
CC(C)(C)CN(CCC#N)C(=O)c1cccc(CN2CCCC2)c1,-11.54
COc1cccc(CN2CCCC2c2cncc(Nc3nncs3)n2)c1 (configuration not stated),-13.76
Nc1ncccc1CN1CCCn2nc(CCC(=O)NC3CC3)cc2C1,4.704
O=C(c1cn(CCN2CCCCC2)nn1)N1CCCCO1,-13.15
COc1cn(CC(=O)N2CCC(c3ccccc3)CC2)c(C)cc1=O,-16.05
Cc1ccc(CN2CCn3cc(CNC(=O)c4cnn(C)c4)nc3C2)s1.O=C(O)C(F)(F)F,-14.66
Cc1nc2n(n1)CC(NCC(=O)NCCCOC(C)C)CC2 (configuration not stated),10.81
CCN(CC)C(=O)CN1CCCC(c2nc(C)c3c(n2)N(C)CCC3)C1 (configuration not stated),11.45
COCCCN(C)S(=O)(=O)c1ccc(Cl)cc1C#N,5.67
CNC(=O)c1cnc(/C=C/c2cc(OC)cc(OC)c2)s1,20.87 & -12.09
O=C(NCCCN1CCOCC1)c1ccn(-c2ccc3ccccn23)n1.O=C(O)C(F)(F)F,-4.045
CCNC(=O)N1CCC(NC(=O)NCCc2ccc(C)cc2C)C1 (configuration not stated),-5.151
[H][C@@]12CNC[C@@]1([H])N(CC(C)C)C(=O)CO2,-7.608
Cc1ccc(C(=O)N2CCc3ncnc(C)c3CC2)cn1,15
CC(C)n1ccc2cc(C(=O)Nc3nc[nH]n3)ccc21,0.8992
COc1ccccc1CC(C)N(C)S(C)(=O)=O (configuration not stated),9.085
CS(=O)(=O)CCCNc1cccc(COC2CCCCC2)c1,-42.34
Cc1ccccc1CC(=O)N1C[C@@H](O)[C@H](N2CCN(C)CC2)C1,4.745
CN(C)c1ncccc1CNC(=O)NCc1ccc(Cl)s1,-15.11
COCCCNC(=O)CN(C)C1CCCN(c2cccnn2)C1 (configuration not stated),-9.899
O=C(O)c1ccc2[nH]cc(CN3CCOCC3)c2c1,6.674
Cc1cc(=O)[nH]c(=O)n1Cc1ccccc1,-14.69
CCN1CCOC(CNc2nccc(C(F)(F)F)n2)C1 (configuration not stated),-15.62
CCCC(=O)NCCCn1ncc2c(C)cccc21,-9.552
Cc1c(Cl)cccc1S(=O)(=O)N1CCC2(CC1)OCCS2,9.476
COc1c(CNC(c2ccccc2)c2ccc(F)cc2)c(C)nn1C (configuration not stated),-3.532
Cc1cc(N2CCC(Cc3cccnc3)C2)ncn1 (configuration not stated),21.72
CN(C)C[C@@H]1CN(C(=O)Cc2ccccc2)C[C@@H]1CO,5.517
COCCc1noc(CN(C)c2cc(C)ncn2)n1,-9.841
CN(C)CC(=O)N1CCC2(CC(=O)N(c3cccc(C#N)c3)C2)C1.O=C(O)C(F)(F)F (configuration not stated),-7.651
CC1=C(C(=O)N(C)Cc2n[nH]c3c2CCCCC3)C(C)NC(=O)N1 (configuration not stated),-21.04 & -11.91
O=C(c1ccccc1F)N1CCOC(c2nc(-c3ncccn3)no2)C1 (configuration not stated),2.34
CS(=O)(=O)NCCNCc1ccc(Br)s1.Cl,-11.71
CC1CCCN(c2ccccc2OCC(=O)NC2CC2)C1 (configuration not stated),-6.034
NCCCC(=O)NCC1(O)CCN(c2ccnc3cccnc23)C1 (configuration not stated),-5.401 & -6.574
CCn1nc(C)cc1C(=O)OCCNc1ncnc2ccccc12,-4.275
CNc1nc2c(s1)C(c1cccc(F)c1F)CC(=O)N2 (configuration not stated),2.044
Cc1ccc(N2CCCC(NCC3=Cc4ccccc4OC3)C2)nn1 (configuration not stated),-16.08
c1ncn(Cc2nnc(C3CCN(C4CCOCC4)CC3)n2C2CC2)n1,7.786 & -14.25
CCCSCC(=O)N1CCCC(c2nccn2Cc2ccncc2)C1 (configuration not stated),-15.11 & -5.287
CN(Cc1ccsc1)C(=O)c1cccc(F)c1,-29.86
Cc1nc(C)c(C(=O)N2Cc3ccccc3OCC2CN(C)C)o1.Cl.Cl (configuration not stated),1.027
CC(=O)N[C@@H]1CN(Cc2oc3ccccc3c2C)C[C@H]1c1ccc(C)o1,-2.762
[H][C@@]12CCN(C(=O)c3ccco3)[C@]1([H])CN(S(C)(=O)=O)C2,-0.9835
Cc1nccn1Cc1nnc(C2CCCN(Cc3ccncc3)C2)n1C (configuration not stated),-10.48
O=C(NC1CC2(CCN(CCO)CC2)c2ccccc21)c1ccncc1.O=C(O)C(F)(F)F.O=C(O)C(F)(F)F (configuration not stated),24.97
Cc1noc(C(C)C)c1C(=O)NCCN1CCCCCC1=O,-8.453
Cc1c(-c2nnc(SCC(=O)O)n2C(C)c2ccccc2)cnn1C (configuration not stated),-16.32
Fc1ccc(OC2CCN(Cc3nnc(-c4ccco4)o3)CC2)cc1,17.15
Cc1cc(C(=O)NCc2cccn2C)nn1C,-17.89
COc1cccc(C(=O)N2CCc3nc(C4CCCN4)ncc3C2)c1.Cl (configuration not stated),9.609
O=C(NCC1CCOC1)c1csc(-c2ccc(F)cc2)n1 (configuration not stated),22.54
CN(C)CC(=O)NC1CC(C)(C)Cc2nc(C(C)(C)C)ncc21 (configuration not stated),-0.7252
O=C(NCCCn1cccn1)N1CCCC1c1cccs1 (configuration not stated),0.5996 & -9.962
Cn1ccnc1-c1noc(NCc2ccc(Cl)cc2)n1,-7.529
OCC1CCN(c2ccc(NCc3ccsc3)nc2)CC1,10.38
CNc1ccnc(NCCC(=O)Nc2ccccc2OC)n1,25.57
O=C(NCCO)Nc1ccc(Br)c(F)c1,-20.14
CC(NC(=O)NCC1(c2ccc(F)cc2)CCCC1)c1nncn1C (configuration not stated),-13.71
Cl.c1ccc(-c2cc(CNCCCC3CCOC3)c3nnnn3c2)cc1 (configuration not stated),-0.2001
CNC(=O)N1CCC2(CC1)CN(C)c1ccc(F)cc12,23.03
COc1ccc(-c2nc(CCNc3nnc(C)c(C)c3C#N)co2)cc1,2.122
O=C(NCCN1CCOCC1)c1nc(-c2ccc3[nH]ccc3c2)no1,-1.305
CCNC(=O)C(C)Oc1ccc(N(C)S(C)(=O)=O)cc1 (configuration not stated),8.519
CC(NC(=O)NCCNc1ncccn1)c1cccs1 (configuration not stated),-10.38
CC[C@@H]1N(Cc2ccc(C)s2)CCC[C@]12CCC(=O)N2C.O=C(O)C(F)(F)F,1.275 & 2.44
COc1ccccc1OCc1nc(C(C)C)no1,25.43 & 18.67
OCCN(Cc1ccno1)Cc1cc(Br)ccc1F,-6.391
CCCOCCn1ncc(N2CCCC2)cc1=O,-5.104
CCOCc1ncn2c1CN(S(=O)(=O)c1cccs1)CC2,-14.59
CCn1c(C)nnc1CN(C)C1CCN(Cc2c(C)noc2C)C1 (configuration not stated),-15.67
CCN(Cc1ccncc1)S(C)(=O)=O,-22.39
O=C(NCCn1nc(-n2cncn2)ccc1=O)c1ccc(F)cc1F,9.07
[H][C@@]12CS(=O)(=O)C[C@]1([H])N(C(=O)c1csc(C)n1)CCN2S(C)(=O)=O,-13.23
Cc1n[nH]c(C)c1-c1nccnc1CC1CCN(C(C)C)CC1,11.38
CC(=O)NCCCn1ncc2c(C)cccc21,1.022
Cn1ncnc1NCc1ccc(Cl)cc1,12.17
COCCN1CC2(CCCN(C(=O)CCCc3cccs3)C2)CCC1=O (configuration not stated),-5.477
Cc1c(C)n(Cc2ccncc2)c2nc3c(c(N)c12)CCCC3,9.916
Cc1nc(CN2CCN(S(=O)(=O)N3CCCCC3)CC2)oc1C,3.673
COc1ccc(CN(C)[C@@H]2COC[C@H]2c2ccc(F)cc2)c(OC)c1.O=C(O)CC(O)(CC(=O)O)C(=O)O,25.96 & 27.63
O=C(Cn1cccnc1=O)NC(Cc1ccsc1)c1cccnc1 (configuration not stated),-0.1324
Cn1ccnc1C(=O)NCc1cc(=O)n2c(n1)CN(CC1CC1)CCC2,-0.7808
Cc1noc(C)c1CN1CCc2c(CNc3nccs3)n[nH]c2C1.O=C(O)C(F)(F)F,-11.52
O=C(N[C@@H]1CCNC[C@H]1O)c1ccc(O)c(Cl)c1,-5.026
O=C(Nc1cccnc1-n1cncn1)N(C1CCCC1)C1CC1,3.251
CCOc1ncccc1NC(=O)N1CCN(c2ccc(O)cc2)CC1,1.669
CC(C)C(=O)NCc1ccc(N2CCCC2)nc1,-9.902
CCc1cc(CNC(=O)C2CCCN(C(=O)NCC(C)C)C2)[nH]n1 (configuration not stated),-10.45
CC(C)c1cc(NC(=O)c2ccc(C(=O)NC(C)(C)C)cc2)[nH]n1,-24.18
Cc1noc(CN(Cc2ccc3c(c2)OCO3)Cc2ccc(C)o2)n1,18.67
O=C(NCCn1cccn1)c1ccn(-c2cccc(F)c2)n1,-9.115

For reference, 8 entries once more:

{"smiles": "Cc1nccn1Cc1nnc(C2CCCN(Cc3ccncc3)C2)n1C", "stereo": "configuration not stated", "effect": -10.48}
{"smiles": "Cc1n[nH]c(C)c1-c1nccnc1CC1CCN(C(C)C)CC1", "effect": 11.38}
{"smiles": "Cc1nc(C)c(C(=O)N2Cc3ccccc3OCC2CN(C)C)o1.Cl.Cl", "stereo": "configuration not stated", "effect": 1.027}
{"smiles": "CC(C)n1ccc2cc(C(=O)Nc3nc[nH]n3)ccc21", "effect": 0.8992}
{"smiles": "Cc1c(-c2nnc(SCC(=O)O)n2C(C)c2ccccc2)cnn1C", "stereo": "configuration not stated", "effect": -16.32}
{"smiles": "O=C(N[C@@H]1CCNC[C@H]1O)c1ccc(O)c(Cl)c1", "effect": -5.026}
{"smiles": "CCNC(=O)N1CCC(NC(=O)NCCc2ccc(C)cc2C)C1", "stereo": "configuration not stated", "effect": -5.151}
{"smiles": "CCN(Cc1ccncc1)S(C)(=O)=O", "effect": -22.39}

The values are deposited in ChEMBL (CHEMBL3988442, “University of Dundee, Small-Polar-MMV Screening Library” (2021)).